Publication PMC8893695, “The microprotein Nrs1 rewires the G1/S transcriptional machinery during nitrogen limitation in budding yeast” (PLoS Biology, 2022)
No constants are given. Whether binding was seen depends on the method and setting. Binding seen in cells or lysates may run through a third protein. Here binding means that the protein was enriched with, or labelled near, the bait; the list need not be complete.

Target: Nrs1^13MYC (S. cerevisiae)
Test: affinity purification with mass spectrometry; anti-MYC immunoprecipitation from lysates of the endogenously tagged NRS1^13MYC strain and an untagged control grown in nitrogen-limited YNB+Pro medium; hits filtered against the control and the CRAPome

binding	Binder
binds	Swi6 (protein, UniProt P09959 1-803) MALEEVVRYLGPHNEIPLTLTRDSETGHFLLKHFLPILQQYHDTGNINETNPDSFPTDEERNKLLAHYGIAVNTDDRGELWIELEKCLQLLNMLNLFGLFQDAFEFEEPETDQDEEDPSHSKLPENKTKSENSKDNISSKRINNLQDMSLDSDAHRELGSPLKKLKIDTSVIDAESDSTPNTARGKPNDDINKGPSGDNENNGTDDNDRTAGPIITFTHDLTSDFLSSPLKIMKALPSPVVNDNEQKMKLEAFLQRLLFPEIQEMPTSLNNDSSNRNSEGGSSNQQQQHVSFDSLLQEVNDAFPNTQLNLNIPVDEHGNTPLHWLTSIANLELVKHLVKHGSNRLYGDNMGESCLVKAVKSVNNYDSGTFEALLDYLYPCLILEDSMNRTILHHIIITSGMTGCSAAAKYYLDILMGWIVKKQNRPIQSGTNEKESKPNDKNGERKDSILENLDLKWIIANMLNAQDSNGDTCLNIAARLGNISIVDALLDYGADPFIANKSGLRPVDFGAGTSKLQNTNGGDENSKMVSKGDYDGQKNGKAKKIRSQLLKNPPETTSLINDVQNLLNSISKDYENETVQYNEKLEKLHKELNEQREELANSREQLANVKQLKDEYSLMQEQLTNLKAGIEEEEESFREESKKLGIIADESSGIDWDSSEYDADEPFKVEFLSDFLEDKLQKNYEGDISKLLEAESKEQIMEQIRNQLPAEKIQSMLPPTVLLKARINAYKRNDKHLTNVLDTISTKQSELENKFRRVLSLCLKIDENKVDNMLDGLLQAISSEDPQDIDTDEMQDFLKKHAS
binds	Swi4 (protein, UniProt P25302 1-1093) MPFDVLISNQKDNTNHQNITPISKSVLLAPHSNHPVIEIATYSETDVYECYIRGFETKIVMRRTKDDWINITQVFKIAQFSKTKRTKILEKESNDMQHEKVQGGYGRFQGTWIPLDSAKFLVNKYEIIDPVVNSILTFQFDPNNPPPKRSKNSILRKTSPGTKITSPSSYNKTPRKKNSSSSTSATTTAANKKGKKNASINQPNPSPLQNLVFQTPQQFQVNSSMNIMNNNDNHTTMNFNNDTRHNLINNISNNSNQSTIIQQQKSIHENSFNNNYSATQKPLQFFPIPTNLQNKNVALNNPNNNDSNSYSHNIDNVINSSNNNNNGNNNNLIIVPDGPMQSQQQQQHHHEYLTNNFNHSMMDSITNGNSKKRRKKLNQSNEQQFYNQQEKIQRHFKLMKQPLLWQSFQNPNDHHNEYCDSNGSNNNNNTVASNGSSIEVFSSNENDNSMNMSSRSMTPFSAGNTSSQNKLENKMTDQEYKQTILTILSSERSSDVDQALLATLYPAPKNFNINFEIDDQGHTPLHWATAMANIPLIKMLITLNANALQCNKLGFNCITKSIFYNNCYKENAFDEIISILKICLITPDVNGRLPFHYLIELSVNKSKNPMIIKSYMDSIILSLGQQDYNLLKICLNYQDNIGNTPLHLSALNLNFEVYNRLVYLGASTDILNLDNESPASIMNKFNTPAGGSNSRNNNTKADRKLARNLPQKNYYQQQQQQQQPQNNVKIPKIIKTQHPDKEDSTADVNIAKTDSEVNESQYLHSNQPNSTNMNTIMEDLSNINSFVTSSVIKDIKSTPSKILENSPILYRRRSQSISDEKEKAKDNENQVEKKKDPLNSVKTAMPSLESPSSLLPIQMSPLGKYSKPLSQQINKLNTKVSSLQRIMGEEIKNLDNEVVETESSISNNKKRLITIAHQIEDAFDSVSNKTPINSISDLQSRIKETSSKLNSEKQNFIQSLEKSQALKLATIVQDEESKVDMNTNSSSHPEKQEDEEPIPKSTSETSSPKNTKADAKFSNTVQESYDVNETLRLATELTILQFKRRMTTLKISEAKSKINSSVKLDKYRNLIGITIENIDSKLDDIEKDLRANA
